According to PubChem BioAssay AID493208 (National Center for Advancing Translational Sciences (NCATS), 2011):
Screen size: about 44,000 compounds; about 340 (0.77%) were called active. The source calls these results inconclusive, neither active nor inactive. The call rests on the fitted dose curve; in most records, active means well fitted inhibition curve with a large enough effect; inconclusive means small, poorly fitted or top-dose-only effect; inactive means flat fitted curve, though single readings scatter. Some tests of the compounds listed are not included; inactive here does not mean inactive elsewhere.

Experiment: Acumen qHTS Assay for Inhibitors of the mTORC1 Signaling Pathway in MEF (Tsc2-/-, p53-/-) Cells: Sytravon; further: nearly all actives have a fitted effect of over 50% in size
Conditions: phospho-rpS6 immunofluorescence/PI, 24 h
Excerpt: NIH Molecular Libraries Probe Production Centers Network [MLPCN] NIH Chemical Genomics Center [NCGC] MLPCN Grant: NS059428-01 Assay Submitter (PI): Blenis, John; Hoffman, Greg; Harvard University NCGC Assay Overview: The mammalian target of rapamycin (mTOR) is an intracellular serine/threonine kinase Aberrant regulation of mTOR signaling plays a causative role in a number of human diseases, including cancer, benign tumors such as lymphangioleiomyomatosis (LAM) and Tuberous Sclerosis Complex (TSC), and metabolic diseases such as diabetes and obesity. This project aims to identify inhibitors of ribosomal protein S6 (rpS6) phosphorylation. The phosphorylation of rpS6 is a key event downstream of mTOR activation. […]
NCGC Acumen Assay Protocol Summary: For quantitative high throughput analysis of mTORC1 signaling, we developed a cell-based assay for immuno-fluorescence based detection of rpS6 phosphorylation on the Acumen Explorer that will be used a platform for the primary small molecule screen. […] The normalized phospho-S6 staining is calculated as the ratio of the integrated Alexa 488 intensity divided by the integrated PI intensity for the single concentration rapamycin control (7.5 nM) and DMSO columns. […] In addition to the pathway specific phospho-S6 endpoint, the number of PI stained cells from the Acumen is recorded as a measure of cell viability. […]
Potency means the concentration at half of the fitted maximal effect.

SMILES	Potency
CC(C)COc1ccc(C(=O)NCC2(N(C)C)CCCCC2)cc1	inconclusive: 26.1 µM
